Experimental data: PMC6138660
No constants are given. Whether binding was seen depends on the method and setting. Binding seen in cells or lysates may run through a third protein. Some binding calls cover weakened binding; strength is not graded here. Sequences can lack the tags named with a protein.

Tests used:
[1] = target: EB1, NanoBRET fusion (not stated (human or mouse cDNA cloned)) (UniProt Q15691); assay: FRET or BRET; NanoBRET in HEK293T cells transfected with 500 ng pHTNW-ORF (HaloTag) and 5 ng pNLF1W-ORF; corrected NanoBRET ratio
[2] = target: EB2, NanoBRET fusion (not stated (human or mouse cDNA cloned)) (UniProt Q15555); assay: as above

binding [1]: no binding | binding [2]: binds
B1: RBM6, NanoBRET fusion (protein, UniProt P78332 1-1123)
chain: MWGDSRPANRTGPFRGSQEERFAPGWNRDYPPPPLKSHAQERHSGNFPGRDSLPFDFQGHSGPPFANVEEHSFSYGARDGPHGDYRGGEGPGHDFRGGDFSSSDFQSRDSSQLDFRGRDIHSGDFRDREGPPMDYRGGDGTSMDYRGREAPHMNYRDRDAHAVDFRGRDAPPSDFRGRGTYDLDFRGRDGSHADFRGRDLSDLDFRAREQSRSDFRNRDVSDLDFRDKDGTQVDFRGRGSGTTDLDFRDRDTPHSDFRGRHRSRTDQDFRGREMGSCMEFKDREMPPVDPNILDYIQPSTQDREHSGMNVNRREESTHDHTIERPAFGIQKGEFEHSETREGETQGVAFEHESPADFQNSQSPVQDQDKSQLSGREEQSSDAGLFKEEGGLDFLGRQDTDYRSMEYRDVDHRLPGSQMFGYGQSKSFPEGKTARDAQRDLQDQDYRTGPSEEKPSRLIRLSGVPEDATKEEILNAFRTPDGMPVKNLQLKEYNTGYDYGYVCVEFSLLEDAIGCMEANQGTLMIQDKEVTLEYVSSLDFWYCKRCKANIGGHRSSCSFCKNPREVTEAKQELITYPQPQKTSIPAPLEKQPNQPLRPADKEPEPRKREEGQESRLGHQKREAERYLPPSRREGPTFRRDRERESWSGETRQDGESKTIMLKRIYRSTPPEVIVEVLEPYVRLTTANVRIIKNRTGPMGHTYGFIDLDSHAEALRVVKILQNLDPPFSIDGKMVAVNLATGKRRNDSGDHSDHMHYYQGKKYFRDRRGGGRNSDWSSDTNRQGQQSSSDCYIYDSATGYYYDPLAGTYYDPNTQQEVYVPQDPGLPEEEEIKEKKPTSQGKSSSKKEMSKRDGKEKKDRGVTRFQENASEGKAPAEDVFKKPLPPTVKKEESPPPPKVVNPLIGLLGEYGGDSDYEEEEEEEQTPPPQPRTAQPQKREEQTKKENEEDKLTDWNKLACLLCRRQFPNKEVLIKHQQLSDLHKQNLEIHRKIKQSEQELAYLERREREGKFKGRGNDRREKLQSFDSPERKRIKYSRETDSDRKLVDKEDIDTSSKGGCVQQATGWRKGTGLGYGHPGLASSEEAEGRMRGPSVGASGRTSKRQSNETYRDAVRRVMFARYKELD
